According to the supplement of paper PMC10849652:
This is one part of the list.

Sequences of proteins named here, by UniProt entry; tags and fusion partners are left off. A change or cut given only in a name is not applied to a line headed by its entry.
UniProt Q9H0G5: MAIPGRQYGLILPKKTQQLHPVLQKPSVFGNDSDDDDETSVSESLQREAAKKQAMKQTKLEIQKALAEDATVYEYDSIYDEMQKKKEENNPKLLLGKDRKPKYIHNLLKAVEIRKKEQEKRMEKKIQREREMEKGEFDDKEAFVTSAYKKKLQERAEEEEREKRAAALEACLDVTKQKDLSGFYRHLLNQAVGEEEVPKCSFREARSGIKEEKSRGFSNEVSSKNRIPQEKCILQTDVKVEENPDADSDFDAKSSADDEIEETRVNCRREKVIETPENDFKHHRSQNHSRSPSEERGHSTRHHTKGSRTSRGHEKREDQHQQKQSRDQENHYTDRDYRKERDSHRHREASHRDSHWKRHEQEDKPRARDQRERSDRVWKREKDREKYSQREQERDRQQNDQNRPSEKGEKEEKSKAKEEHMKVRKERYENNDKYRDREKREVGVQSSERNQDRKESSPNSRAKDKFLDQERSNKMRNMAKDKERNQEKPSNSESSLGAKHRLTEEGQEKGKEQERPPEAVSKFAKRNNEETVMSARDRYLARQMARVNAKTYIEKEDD
UniProt Q08J23, whole entry, looked up: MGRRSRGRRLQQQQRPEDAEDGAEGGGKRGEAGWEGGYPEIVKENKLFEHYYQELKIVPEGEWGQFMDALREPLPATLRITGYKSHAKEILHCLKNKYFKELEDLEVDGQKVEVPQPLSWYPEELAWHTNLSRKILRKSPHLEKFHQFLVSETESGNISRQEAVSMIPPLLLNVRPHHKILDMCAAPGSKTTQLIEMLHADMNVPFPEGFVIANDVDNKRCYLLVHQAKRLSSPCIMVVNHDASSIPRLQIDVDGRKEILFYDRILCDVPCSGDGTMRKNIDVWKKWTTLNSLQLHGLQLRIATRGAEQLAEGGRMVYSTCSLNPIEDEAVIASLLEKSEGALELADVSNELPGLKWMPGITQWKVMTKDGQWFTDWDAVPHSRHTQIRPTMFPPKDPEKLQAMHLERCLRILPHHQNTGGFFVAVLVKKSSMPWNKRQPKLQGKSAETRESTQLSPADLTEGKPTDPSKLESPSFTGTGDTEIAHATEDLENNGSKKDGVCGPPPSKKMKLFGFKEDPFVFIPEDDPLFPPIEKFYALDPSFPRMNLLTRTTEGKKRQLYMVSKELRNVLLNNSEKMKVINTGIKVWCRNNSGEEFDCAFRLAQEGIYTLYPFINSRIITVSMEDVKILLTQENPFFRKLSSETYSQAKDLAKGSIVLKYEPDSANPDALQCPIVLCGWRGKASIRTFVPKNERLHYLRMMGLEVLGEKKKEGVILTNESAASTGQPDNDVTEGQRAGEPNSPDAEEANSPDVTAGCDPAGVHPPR
UniProt Q96D31, whole entry, looked up: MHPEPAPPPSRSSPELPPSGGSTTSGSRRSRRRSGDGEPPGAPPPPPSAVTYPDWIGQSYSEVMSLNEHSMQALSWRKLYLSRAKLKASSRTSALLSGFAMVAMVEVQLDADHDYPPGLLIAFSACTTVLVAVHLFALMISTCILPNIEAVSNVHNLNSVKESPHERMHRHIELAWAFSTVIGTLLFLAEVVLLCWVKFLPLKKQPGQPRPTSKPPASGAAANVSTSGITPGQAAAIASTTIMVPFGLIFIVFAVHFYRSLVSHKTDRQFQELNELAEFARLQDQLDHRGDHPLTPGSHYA
UniProt Q9BZF1: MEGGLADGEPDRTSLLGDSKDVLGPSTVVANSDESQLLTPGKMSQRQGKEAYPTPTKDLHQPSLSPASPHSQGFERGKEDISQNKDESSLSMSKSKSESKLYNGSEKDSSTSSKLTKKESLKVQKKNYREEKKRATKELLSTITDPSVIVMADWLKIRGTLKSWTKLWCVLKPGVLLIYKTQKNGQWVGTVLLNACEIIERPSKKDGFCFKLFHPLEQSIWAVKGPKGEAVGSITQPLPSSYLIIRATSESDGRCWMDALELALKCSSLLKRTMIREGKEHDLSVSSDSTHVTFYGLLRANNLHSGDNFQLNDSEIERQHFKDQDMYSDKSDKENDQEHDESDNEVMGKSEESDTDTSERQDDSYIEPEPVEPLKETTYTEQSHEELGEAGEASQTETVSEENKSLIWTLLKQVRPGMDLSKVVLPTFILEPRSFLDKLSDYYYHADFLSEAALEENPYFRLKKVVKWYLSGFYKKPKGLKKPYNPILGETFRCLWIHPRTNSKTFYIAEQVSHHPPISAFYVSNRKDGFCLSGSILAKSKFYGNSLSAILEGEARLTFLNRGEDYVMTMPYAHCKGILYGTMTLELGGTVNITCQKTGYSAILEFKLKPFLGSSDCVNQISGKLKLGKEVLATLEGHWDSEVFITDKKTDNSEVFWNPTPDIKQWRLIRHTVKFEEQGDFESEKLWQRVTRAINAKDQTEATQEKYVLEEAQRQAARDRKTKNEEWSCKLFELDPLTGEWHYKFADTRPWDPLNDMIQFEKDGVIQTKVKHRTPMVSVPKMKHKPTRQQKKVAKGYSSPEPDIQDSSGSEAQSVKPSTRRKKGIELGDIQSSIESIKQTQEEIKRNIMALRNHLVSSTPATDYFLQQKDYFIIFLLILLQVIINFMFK
UniProt O95989: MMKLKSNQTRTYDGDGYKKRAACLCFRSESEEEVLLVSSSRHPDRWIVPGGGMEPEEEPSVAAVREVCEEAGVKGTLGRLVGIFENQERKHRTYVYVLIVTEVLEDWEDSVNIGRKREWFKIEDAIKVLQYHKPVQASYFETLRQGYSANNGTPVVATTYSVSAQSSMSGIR
UniProt O43809, whole entry, looked up: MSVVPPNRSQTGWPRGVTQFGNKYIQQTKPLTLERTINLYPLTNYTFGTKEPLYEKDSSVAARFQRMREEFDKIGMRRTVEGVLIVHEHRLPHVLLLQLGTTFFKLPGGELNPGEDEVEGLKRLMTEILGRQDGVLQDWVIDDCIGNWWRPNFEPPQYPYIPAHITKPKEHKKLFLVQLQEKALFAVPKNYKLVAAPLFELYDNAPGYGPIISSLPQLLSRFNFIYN
UniProt O60313: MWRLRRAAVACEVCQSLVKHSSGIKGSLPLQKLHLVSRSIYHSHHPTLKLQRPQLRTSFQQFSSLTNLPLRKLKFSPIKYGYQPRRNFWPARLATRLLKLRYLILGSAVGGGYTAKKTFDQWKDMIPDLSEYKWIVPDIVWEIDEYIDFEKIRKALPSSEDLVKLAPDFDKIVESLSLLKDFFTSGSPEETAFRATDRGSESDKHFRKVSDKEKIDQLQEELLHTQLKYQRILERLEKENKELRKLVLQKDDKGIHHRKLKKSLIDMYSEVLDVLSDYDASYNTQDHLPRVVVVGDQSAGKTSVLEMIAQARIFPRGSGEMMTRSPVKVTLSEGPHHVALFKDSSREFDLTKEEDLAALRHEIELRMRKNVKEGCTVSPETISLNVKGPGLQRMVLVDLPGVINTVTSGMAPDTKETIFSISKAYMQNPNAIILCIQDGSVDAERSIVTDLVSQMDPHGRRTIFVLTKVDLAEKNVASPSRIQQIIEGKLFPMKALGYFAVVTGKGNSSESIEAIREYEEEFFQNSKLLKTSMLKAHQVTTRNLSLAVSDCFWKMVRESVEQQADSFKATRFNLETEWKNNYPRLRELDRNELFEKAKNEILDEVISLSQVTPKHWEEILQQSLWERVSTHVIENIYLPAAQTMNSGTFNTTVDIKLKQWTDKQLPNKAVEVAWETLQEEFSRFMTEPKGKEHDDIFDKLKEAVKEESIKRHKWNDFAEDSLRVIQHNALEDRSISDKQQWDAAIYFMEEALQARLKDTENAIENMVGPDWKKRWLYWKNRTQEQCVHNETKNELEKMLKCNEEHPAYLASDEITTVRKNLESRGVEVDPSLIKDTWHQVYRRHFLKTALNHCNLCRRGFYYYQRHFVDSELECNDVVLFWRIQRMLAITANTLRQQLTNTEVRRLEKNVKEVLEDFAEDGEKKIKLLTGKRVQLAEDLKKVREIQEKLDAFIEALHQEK
UniProt Q9NRP0: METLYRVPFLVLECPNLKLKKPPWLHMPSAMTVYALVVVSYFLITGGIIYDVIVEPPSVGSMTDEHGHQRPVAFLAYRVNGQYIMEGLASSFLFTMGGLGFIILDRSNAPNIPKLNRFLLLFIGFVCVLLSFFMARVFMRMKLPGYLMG
UniProt Q8NE18: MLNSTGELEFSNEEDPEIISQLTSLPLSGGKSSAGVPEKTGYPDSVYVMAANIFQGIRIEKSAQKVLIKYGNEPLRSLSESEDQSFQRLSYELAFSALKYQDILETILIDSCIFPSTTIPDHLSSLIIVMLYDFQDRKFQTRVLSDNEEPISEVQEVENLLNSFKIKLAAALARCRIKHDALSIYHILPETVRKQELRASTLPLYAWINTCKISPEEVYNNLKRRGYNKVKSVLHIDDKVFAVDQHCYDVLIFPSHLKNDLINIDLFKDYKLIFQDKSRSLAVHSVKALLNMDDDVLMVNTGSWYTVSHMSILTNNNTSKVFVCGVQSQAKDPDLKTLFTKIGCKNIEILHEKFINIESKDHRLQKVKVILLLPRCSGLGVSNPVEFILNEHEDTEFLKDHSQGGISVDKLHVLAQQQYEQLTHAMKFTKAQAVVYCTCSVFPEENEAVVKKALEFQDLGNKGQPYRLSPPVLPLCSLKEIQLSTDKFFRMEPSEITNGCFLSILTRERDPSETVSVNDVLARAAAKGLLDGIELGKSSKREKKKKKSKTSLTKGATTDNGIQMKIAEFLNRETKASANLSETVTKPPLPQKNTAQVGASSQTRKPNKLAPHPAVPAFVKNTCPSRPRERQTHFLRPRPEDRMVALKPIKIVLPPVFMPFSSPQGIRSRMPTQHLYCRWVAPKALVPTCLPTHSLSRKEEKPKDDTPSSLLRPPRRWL
UniProt Q13416: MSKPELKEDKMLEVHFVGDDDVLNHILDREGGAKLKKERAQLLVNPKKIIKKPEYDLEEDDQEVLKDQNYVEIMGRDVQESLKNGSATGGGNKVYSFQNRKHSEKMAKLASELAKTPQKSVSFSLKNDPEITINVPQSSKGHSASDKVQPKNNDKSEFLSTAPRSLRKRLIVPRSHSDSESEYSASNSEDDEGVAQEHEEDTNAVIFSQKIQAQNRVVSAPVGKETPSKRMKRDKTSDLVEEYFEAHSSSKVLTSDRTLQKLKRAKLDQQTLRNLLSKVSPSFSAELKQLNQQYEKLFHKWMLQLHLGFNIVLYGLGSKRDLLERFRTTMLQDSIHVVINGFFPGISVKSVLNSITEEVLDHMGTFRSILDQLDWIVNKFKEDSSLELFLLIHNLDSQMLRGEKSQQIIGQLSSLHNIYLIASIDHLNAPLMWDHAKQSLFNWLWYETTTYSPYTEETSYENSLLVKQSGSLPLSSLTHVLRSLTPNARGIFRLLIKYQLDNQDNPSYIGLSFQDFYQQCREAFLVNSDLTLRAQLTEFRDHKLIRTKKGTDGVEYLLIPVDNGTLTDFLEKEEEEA
UniProt Q9BQG2: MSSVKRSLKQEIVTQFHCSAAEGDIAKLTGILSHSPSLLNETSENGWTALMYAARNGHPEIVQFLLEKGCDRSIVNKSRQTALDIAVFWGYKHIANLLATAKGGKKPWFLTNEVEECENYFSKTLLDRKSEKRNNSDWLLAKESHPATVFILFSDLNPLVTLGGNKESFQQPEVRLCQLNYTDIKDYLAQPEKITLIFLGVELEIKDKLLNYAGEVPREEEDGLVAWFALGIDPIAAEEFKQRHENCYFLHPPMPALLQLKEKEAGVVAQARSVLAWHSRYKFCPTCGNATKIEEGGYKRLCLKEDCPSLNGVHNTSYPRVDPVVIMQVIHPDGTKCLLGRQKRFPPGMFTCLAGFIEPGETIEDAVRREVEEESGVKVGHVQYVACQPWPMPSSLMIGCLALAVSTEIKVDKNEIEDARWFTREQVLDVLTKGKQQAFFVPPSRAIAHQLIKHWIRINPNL
UniProt P13674: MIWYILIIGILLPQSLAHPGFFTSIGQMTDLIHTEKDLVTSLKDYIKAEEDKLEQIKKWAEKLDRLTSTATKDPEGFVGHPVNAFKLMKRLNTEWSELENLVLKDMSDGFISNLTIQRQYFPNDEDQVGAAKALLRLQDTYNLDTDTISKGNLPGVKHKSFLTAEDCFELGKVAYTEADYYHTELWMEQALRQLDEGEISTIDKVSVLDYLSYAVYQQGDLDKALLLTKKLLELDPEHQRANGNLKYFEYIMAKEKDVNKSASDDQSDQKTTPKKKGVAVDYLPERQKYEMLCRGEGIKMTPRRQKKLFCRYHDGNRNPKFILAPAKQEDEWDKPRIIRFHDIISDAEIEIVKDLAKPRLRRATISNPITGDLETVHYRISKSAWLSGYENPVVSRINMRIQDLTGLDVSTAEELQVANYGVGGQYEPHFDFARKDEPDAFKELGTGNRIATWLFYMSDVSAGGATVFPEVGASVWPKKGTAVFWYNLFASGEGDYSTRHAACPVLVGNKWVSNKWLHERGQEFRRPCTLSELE
UniProt Q9Y530: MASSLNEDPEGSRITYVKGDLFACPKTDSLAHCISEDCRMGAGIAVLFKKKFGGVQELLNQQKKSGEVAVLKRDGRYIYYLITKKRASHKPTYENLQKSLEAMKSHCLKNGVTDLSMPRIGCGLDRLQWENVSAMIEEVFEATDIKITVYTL

What was measured:
Assay in all cases: log2 fold change, soluble protein after heating vs DMSO (PISA); higher = thermal stabilisation; K562 cells, 10 uM, 30 min; active = over 0.2 and 3.5 SD of the protein, either way, in both replicates (recomputed)
[1] = compound: CC[C@@H]1C(=O)N(C)c2cnc(Nc3ccc(C(=O)NC4CCN(C)CC4)cc3OC)nc2N1C1CCCC1
Procedure, shortened: (§1)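 K562 cells at 2×10^6 cells/mL were given 10 μM compound for 30 min. Aliquots then went through 3 min of heating across 48°C-58°C, were pooled, and were extracted in PBS with 0.5% NP-40 at 4°C, and the supernatant after 21,000xg for 90 min was quantified by TMTpro 16plex LC-MS/MS with channel sums equalised. Thermal stability relative to control samples, from duplicates, is given as log2 fold change.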

[2] = compound: CC[C@@H]1C(=O)N(C)c2cnc(Nc3ccc(C(=O)N[C@H]4CC[C@H](N5CCN(CC6CC6)CC5)CC4)cc3OC)nc2N1C(C)C [volasertib]
Procedure, shortened: as §1

[3] = compound: CC[C@H](C)N1C=C(C2=C(C=C(C=C21)C3=CN=C(C=C3)N4CCNCC4)C(=O)NCC5=C(C=C(NC5=O)C)C)C
Procedure, shortened: as §1

[4] = compound: CC[C@H](C)[C@@H](C(=O)N[C@@H]([C@@H](C)O)C(=O)N[C@@H](CC(C)C)C(=O)[C@]1(CO1)C)NC(=O)[C@H]([C@@H](C)CC)N(C)C(=O)C [epoxomicin]
Procedure, shortened: as §1

[5] = compound: CCn1c(C(=O)N(C2CC2)C2CC2)cc2c3c(ncn3C)c(Nc3cc(C)n(C)n3)nc21
Procedure, shortened: as §1

[6] = compound: CCn1cc(-c2ccnc3[nH]c(-c4cccc(CN(C)C)c4)cc23)c(-c2ccc(NC(=O)N(C)C)cc2)n1
Procedure, shortened: as §1

[7] = compound: CN(C)CC(=O)Nc1ccc2[nH]c(=O)c3ccccc3c2c1
Procedure, shortened: as §1

[8] = compound: CN(CCOC1=CC=C(C=C1)C[C@H]2C(=O)NC(=O)S2)C3=CC=CC=N3 (racemic) [rosiglitazone]
Procedure, shortened: as §1

[9] = compound: CN1C2=C(C3=C1C(=O)N(N=C3)CC4=CC(=CC=C4)N)SC(=C2)S(=O)C
Procedure, shortened: as §1

[10] = compound: CN1CCC(CNc2ccc3ncc(-c4cccc(OC(F)(F)F)c4)n3n2)CC1
Procedure, shortened: as §1

[11] = compound: CN1CCN(CCOc2cc(OC3CCOCC3)c3c(Nc4c(Cl)ccc5c4OCO5)ncnc3c2)CC1 [saracatinib]
Procedure, shortened: as §1

[12] = compound: CN1CCN(c2nc(C3=C(c4c[nH]c5ccccc45)C(=O)NC3=O)c3ccccc3n2)CC1 [sotrastaurin]
Procedure, shortened: as §1

[13] = compound: CN1CC[C@H](c2c(O)cc(O)c3c(=O)cc(-c4ccccc4Cl)oc23)[C@H](O)C1 [alvocidib]
Procedure, shortened: as §1

[14] = compound: CN1CCc2c(c3ccccc3n2Cc2ccc(C(=O)NO)cc2)C1 [Tubastatin A]
Procedure, shortened: as §1

[15] = compound: CNC(=O)C1=CC=CC=C1NC2=NC(=NC=C2Cl)NC3=C(C=C(C=C3)N4CCOCC4)OC
Procedure, shortened: as §1

[16] = compound: CNC(=O)c1ccc(Nc2ncc(C(F)(F)F)c(NCc3nccnc3N(C)S(C)(=O)=O)n2)cc1 [defactinib]
Procedure, shortened: as §1

[17] = compound: CNCc1ccc(-c2[nH]c3cc(F)cc4c3c2CCNC4=O)cc1 [rucaparib]
Procedure, shortened: as §1

[18] = compound: CNc1nc(-c2ccc3c(N)n[nH]c3c2)cc(N2C[C@@H](C(=O)NC3CCCCC3)CC[C@H]2C)n1
Procedure, shortened: as §1

[19] = compound: COC(=O)N[C@@H](C)CNc1nccc(-c2cn(C(C)C)nc2-c2cc(Cl)cc(NS(C)(=O)=O)c2F)n1 [encorafenib]
Procedure, shortened: as §1

[20] = compound: COC(=O)[C@H](CCSC)NC(=O)C1=C(C=C(C=C1)NC[C@H](CS)N)C2=CC=CC=C2
Procedure, shortened: as §1

Measured: log2 fold change

NSRP1 (UniProt Q9H0G5)
inactive: [1] 0.115 | [2] 0.03 | [3] 0.02 | [4] -0.128 | [5] 0.011 | [6] 0.095 | [7] -0.066 | [8] -0.055 | [9] 0.204 | [10] 0.096 | [11] -0.001 | [12] 0.038 | [13] 0.066 | [14] 0.002 | [15] -0.082 | [16] 0.064 | [17] 0.197 | [18] 0.015 | [19] 0.046 | [20] 0.001

NSUN2 (UniProt Q08J23)
inactive: [1] -0.182 | [2] -0.286 | [3] 0.051 | [4] -0.044 | [6] -0.044 | [7] 0.009 | [9] 0.025 | [10] -0.131 | [11] 0.008 | [12] -0.243 | [14] -0.008 | [15] -0.081 | [17] -0.021 | [18] -0.083 | [19] 0.004 | [20] 0.009
active: [13] -0.328 | [16] -0.281

ORAI1 (UniProt Q96D31)
inactive: [1] 0.028 | [2] -0.042 | [3] -0.02 | [4] 0.069 | [5] -0.169 | [7] -0.016 | [8] -0.014 | [14] -0.115 | [15] -0.038 | [16] -0.056 | [17] 0.031 | [19] 0.021 | [20] -0.105

OSBPL8 (UniProt Q9BZF1)
inactive: [1] -0.068 | [2] -0.026 | [3] 0.062 | [4] -0.118 | [6] 0.061 | [7] 0.055 | [9] 0.09 | [10] -0.114 | [11] -0.175 | [12] -0.054 | [14] 0.078 | [15] 0.11 | [16] 0.025 | [17] 0.232 | [19] 0.167 | [20] -0.078
active: [18] 0.488

NUDT3 (UniProt O95989)
inactive: [1] -0.056 | [2] 0.007 | [3] -0.049 | [4] -0.007 | [5] 0.049 | [6] -0.068 | [7] 0 | [8] 0.004 | [9] 0 | [10] 0 | [11] -0.027 | [12] 0.013 | [13] 0.009 | [14] 0.143 | [15] -0.018 | [16] -0.052 | [17] -0.074 | [18] -0.031 | [19] -0.039 | [20] 0.028

Quoted from the entries so far (3 entries):
ORAI1 (UniProt Q96D31)
inactive: [1] 0.028 | [2] -0.042 | [3] -0.02 | [4] 0.069 | [5] -0.169 | [7] -0.016 | [8] -0.014 | [14] -0.115 | [15] -0.038 | [16] -0.056 | [17] 0.031 | [19] 0.021 | [20] -0.105

OSBPL8 (UniProt Q9BZF1)
inactive: [1] -0.068 | [2] -0.026 | [3] 0.062 | [4] -0.118 | [6] 0.061 | [7] 0.055 | [9] 0.09 | [10] -0.114 | [11] -0.175 | [12] -0.054 | [14] 0.078 | [15] 0.11 | [16] 0.025 | [17] 0.232 | [19] 0.167 | [20] -0.078
active: [18] 0.488

NUDT3 (UniProt O95989)
inactive: [1] -0.056 | [2] 0.007 | [3] -0.049 | [4] -0.007 | [5] 0.049 | [6] -0.068 | [7] 0 | [8] 0.004 | [9] 0 | [10] 0 | [11] -0.027 | [12] 0.013 | [13] 0.009 | [14] 0.143 | [15] -0.018 | [16] -0.052 | [17] -0.074 | [18] -0.031 | [19] -0.039 | [20] 0.028

The listing continues:

NUDT21 (UniProt O43809)
inactive: [1] 0.036 | [2] 0.074 | [3] -0.033 | [4] -0.107 | [6] 0.038 | [7] -0.041 | [9] -0.013 | [10] 0.064 | [11] 0.028 | [12] 0.024 | [14] 0.01 | [15] -0.166 | [16] 0.045 | [17] 0.004 | [18] -0.025 | [19] -0.015 | [20] -0.034

OPA1 isoform 2 (UniProt O60313)
inactive: [1] -0.187 | [2] -0.264 | [3] 0.039 | [4] 0.027 | [6] -0.081 | [7] 0.023 | [9] -0.013 | [11] -0.072 | [12] -0.005 | [14] 0.054 | [15] -0.047 | [16] -0.024 | [17] -0.001 | [18] 0.064 | [19] 0.056 | [20] -0.047
active: [10] -0.347

OSTC (UniProt Q9NRP0)
inactive: [1] -0.01 | [2] -0.141 | [3] 0.011 | [4] -0.073 | [6] 0.039 | [7] 0.073 | [9] -0.129 | [10] -0.053 | [11] 0.111 | [12] -0.05 | [14] -0.174 | [15] 0.03 | [16] -0.053 | [17] -0.036 | [18] -0.004 | [19] 0.047 | [20] -0.046

NSUN7 (UniProt Q8NE18)
inactive: [1] 0.197 | [2] 0.133 | [3] -0.008 | [4] -0.105 | [5] -0.052 | [6] 0.311 | [7] -0.115 | [8] 0.079 | [10] -0.285 | [13] -0.008 | [14] 0.059 | [15] 0.056 | [16] 0.068 | [17] -0.108 | [19] 0.178 | [20] -0.013

ORC2 (UniProt Q13416)
inactive: [1] 0.044 | [2] -0.333 | [3] 0.047 | [4] 0.052 | [5] -0.086 | [6] -0.075 | [8] 0.06 | [10] -0.318 | [12] -0.131 | [14] -0.056 | [15] -0.077 | [17] 0.083 | [19] 0.038

NUDT12 (UniProt Q9BQG2)
inactive: [1] -0.053 | [2] -0.016 | [3] 0.076 | [4] 0.067 | [5] 0.042 | [6] -0.056 | [7] 0.035 | [8] 0.023 | [9] 0.076 | [10] 0.076 | [11] -0.02 | [12] 0.035 | [13] -0.007 | [14] 0.011 | [15] 0.034 | [16] -0.045 | [17] -0.02 | [18] 0.039 | [19] -0.002 | [20] -0.036

OPA3 (UniProt Q9H6K4)
inactive: [1] 0.043 | [2] 0.072 | [3] 0.067 | [4] 0.108 | [5] 0.022 | [7] -0.039 | [8] 0.064 | [9] 0.002 | [11] 0.065 | [12] 0.04 | [13] 0.05 | [14] -0.056 | [15] -0.053 | [16] -0.047 | [17] -0.025 | [18] -0.084 | [19] -0.081 | [20] 0.064

NUDT18 (UniProt Q6ZVK8)
inactive: [1] 0.02 | [2] 0.165 | [3] -0.08 | [4] 0.208 | [5] -0.042 | [6] -0.129 | [7] -0.062 | [10] -0.25 | [12] 0.036 | [13] 0.039 | [14] -0.073 | [15] 0.08 | [16] 0.102 | [17] 0.14 | [19] 0.025 | [20] 0.103

P4HA1 (UniProt P13674)
inactive: [1] 0.042 | [2] -0.011 | [3] 0.005 | [4] -0.018 | [5] 0.032 | [6] 0.059 | [7] -0.014 | [8] -0.042 | [9] 0.081 | [10] 0.07 | [11] -0.107 | [12] -0.043 | [13] 0.088 | [14] 0.021 | [15] 0.011 | [16] 0.093 | [17] 0.04 | [18] 0.024 | [19] 0.113 | [20] -0.002

ORC3 isoform 2 (UniProt Q9UBD5)
inactive: [1] -0.046 | [2] -0.396 | [3] 0.044 | [4] 0.181 | [6] -0.017 | [7] 0.067 | [9] -0.034 | [10] -0.376 | [11] 0.001 | [12] 0.011 | [14] 0.006 | [15] -0.078 | [16] -0.288 | [17] 0 | [18] 0.014 | [19] 0.288 | [20] 0.06

NSMCE1 (UniProt Q8WV22)
inactive: [1] -0.068 | [2] 0.167 | [3] 0.071 | [4] -0.083 | [5] 0.009 | [7] -0.084 | [9] -0.119 | [11] 0.013 | [12] -0.018 | [13] -0.035 | [14] 0.011 | [15] 0.249 | [16] 0.13 | [17] 0.061 | [18] 0.026 | [19] 0 | [20] -0.19

OSBPL6 isoform 5 (UniProt Q9BZF3)
inactive: [1] 0.484 | [2] 0.173 | [3] 0.155 | [4] -0.84 | [5] -0.066 | [12] -0.097 | [15] 0.063 | [17] 0.557 | [19] 0.271

OARD1 (UniProt Q9Y530)
inactive: [1] -0.077 | [2] -0.152 | [3] 0.003 | [4] 0.037 | [5] -0.058 | [7] 0.078 | [8] 0.089 | [9] 0.013 | [11] -0.112 | [12] -0.021 | [13] -0.111 | [14] 0.077 | [15] 0.034 | [16] -0.14 | [17] 0.147 | [18] 0.086 | [19] -0.031 | [20] -0.027

NUDT5 (UniProt Q9UKK9)
inactive: [1] 0.009 | [2] 0.032 | [3] -0.019 | [4] 0.008 | [5] 0.026 | [6] 0.022 | [7] -0.006 | [8] -0.01 | [9] -0.017 | [10] -0.021 | [11] 0.039 | [12] 0.018 | [13] 0.02 | [14] -0.026 | [15] -0.035 | [16] -0.011 | [17] -0.092 | [18] -0.045 | [19] 0.002 | [20] 0.014
